Laboratory results: the supplement of paper PMC3334620
Over roughly 33,000 sequences, “E-score (-0.5 to 0.5)” has its median near -0.015; the highest 2% begin near 0.3. Some of the results follow.

Target: T1, Abf1 (UniProt P14164)
T1 sequence: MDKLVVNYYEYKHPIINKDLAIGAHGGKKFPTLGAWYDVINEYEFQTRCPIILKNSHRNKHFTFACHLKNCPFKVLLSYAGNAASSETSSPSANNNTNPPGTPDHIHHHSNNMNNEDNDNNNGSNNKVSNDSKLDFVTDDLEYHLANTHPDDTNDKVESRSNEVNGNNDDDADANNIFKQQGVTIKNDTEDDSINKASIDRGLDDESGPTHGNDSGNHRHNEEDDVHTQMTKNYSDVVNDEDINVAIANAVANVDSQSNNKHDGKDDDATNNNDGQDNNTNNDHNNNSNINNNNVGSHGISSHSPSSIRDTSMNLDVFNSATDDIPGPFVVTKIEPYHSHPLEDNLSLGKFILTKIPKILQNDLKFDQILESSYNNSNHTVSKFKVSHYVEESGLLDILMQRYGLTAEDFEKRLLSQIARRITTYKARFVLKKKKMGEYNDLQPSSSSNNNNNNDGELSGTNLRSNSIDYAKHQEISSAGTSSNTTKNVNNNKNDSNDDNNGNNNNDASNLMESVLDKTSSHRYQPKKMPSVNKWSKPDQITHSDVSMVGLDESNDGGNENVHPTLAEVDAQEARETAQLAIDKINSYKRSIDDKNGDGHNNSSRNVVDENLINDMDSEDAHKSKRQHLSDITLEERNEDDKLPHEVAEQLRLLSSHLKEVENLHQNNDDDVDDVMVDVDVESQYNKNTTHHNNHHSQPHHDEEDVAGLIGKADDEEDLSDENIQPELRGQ
Experiment: PBM E-score (8-mer binding enrichment) (E-score (-0.5 to 0.5)); higher = stronger / more preferred TF binding
Settings: protein concentration: 200 nM; construct: GST-full length
Summary of the method: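 GST-tagged yeast TFs (full-length or DNA-binding domain) were made by PURExpress in vitro transcription/translation and applied at about 100-200 nM to universal all-10-mer Agilent arrays. The arrays were made double-stranded by primer extension, on fresh or once-stripped slides. Bound protein was detected with fluorescent anti-GST, and scans were normalised with masliner. Each ungapped eight-base word, pooled with its reverse complement, received an E-score (modified Wilcoxon-Mann-Whitney statistic) from the Universal PBM Analysis Suite.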

| Sequence | PBM E-score |
| --- | --- |
| ATGACGGC | 0.0817 |
| CGAGGAAA | -0.0178 |
| CTGCACCC | -0.316 |
| GCGCTGAC | -0.185 |
| CTGTATAC | 0.0574 |
| GTCAGTCA | 0.0751 |
| GTCACCTA | 0.154 |
| ACGATTGC | 0.223 |
| ACTTAATC | 0.056 |
| GGCATCAC | 0.0726 |
| GGTATCAC | 0.246 |
| AGCCTAGG | -0.302 |
| ACCTTAAA | 0.125 |
| AATTCGGT | 0.203 |
| AGGTTTTC | 0.0704 |
| ACAGATAC | 0.0423 |
| GTACAGCA | 0.00695 |
| ATACACAT | 0.115 |
| CTGGTGAA | -0.149 |
| CTACGTAC | 0.297 |
| ACGGAACC | 0.231 |
| GAATAATA | 0.235 |
| ACAAGGAT | 0.0172 |
| GACGGTTA | 0.0209 |
| ATCGGTCA | 0.0516 |

| Sequence | PBM E-score |
| --- | --- |
| CATTATCG | 0.0198 |
| CCTATACA | -0.125 |
| CACGGTGC | 0.0971 |
| CCATCGCC | -0.204 |
| ACGGGGGA | 0.0699 |
| ACGACCCG | 0.166 |
| ATAAAAAG | 0.18 |
| GGGAATAA | 0.086 |
| AAAGCGAC | 0.242 |
| CCGCTATC | -0.0439 |
| CTCTGCAC | -0.168 |
| AAAGCACT | -0.0166 |
| AATACGCC | -0.158 |
| GGATTTGA | -0.0358 |
| CGTCCCCA | 0.0653 |
| AGCACCAA | -0.00651 |
| AAGGATTG | -0.173 |
| ACATCGTG | 0.185 |
| CATCTCAC | 0.137 |
| CTCTCTCA | -0.104 |
| CTCCGGCC | -0.212 |
| CACACACC | -0.169 |
| AACCGATC | -0.163 |
| GTCACATA | 0.246 |
| CCATCCGC | -0.12 |

| Sequence | PBM E-score |
| --- | --- |
| AAGTTTGT | 0.0616 |
| AAGTTCTC | -0.035 |
| AGTAAGCG | -0.0466 |
| TATGCTAA | -0.216 |
| CCACCGTC | 0.0476 |
| AGACAGCC | -0.208 |
| CCCTTTAA | -0.0657 |
| TATACGGA | 0.164 |
| GCCTTACA | -0.205 |
| CGGATCAC | 0.193 |
| CGCATTGC | -0.0662 |
| ATGCCGTA | 0.288 |
| CTGAACGA | 0.173 |
| AAGTACCG | 0.0551 |
| CACGCCTG | -0.0185 |
| CTCCTCTC | -0.269 |
| GCCCCCAC | -0.319 |
| ATCGAAGA | 0.124 |
| CGTATCGC | 0.123 |
| ACGAGGAC | 0.0731 |
| CGCACTAA | 0.0244 |
| CGTAATAA | 0.251 |
| TACAGCCA | -0.224 |
| TTCCACAA | -0.0375 |
| ATGCAGGC | -0.0563 |

| Sequence | PBM E-score |
| --- | --- |
| CGATCCAC | 0.0791 |
| AAAGAGGC | -0.209 |
| CAAGGCAG | -0.134 |
| AGGCGTGA | 0.0402 |
| TGGCGTAA | -0.137 |
| CCTCAAGG | -0.217 |
| GAGCCGAA | 0.0505 |
| AAGGGAAT | -0.0145 |
| ACTGACAC | -0.195 |
| ATTCCACC | 0.0168 |
| CCGCTCCA | -0.155 |
| ACCCACCG | 0.0262 |
| GATAAGCC | -0.148 |
| AGCGCACA | -0.0935 |
| GTAATCAC | 0.141 |
| CACCGAAC | -0.111 |
| ACGTTAAT | 0.163 |
| CCCCGTTC | 0.0254 |
| AACCGTAC | 0.162 |
| CGTAGTTA | 0.285 |
| ATCGGGAA | 0.00913 |
| CACGCGTG | 0.0911 |
| TACCCAGA | -0.121 |
| CCGATCAG | 0.0154 |
| ATTACTAG | -0.191 |

| Sequence | PBM E-score |
| --- | --- |
| GAAGGGGA | -0.0331 |
| GCGGCCAA | -0.123 |
| ATTCCTGG | -0.195 |
| GGCTTGTA | -0.0629 |
| ACATGGGA | -0.0276 |
| AGGCTCCA | -0.282 |
| CATATTAG | 0.136 |
| CCCGTAAA | 0.035 |
| CACAATTA | 0.165 |
| ACACGGAC | 0.296 |
| GACCTTCC | -0.121 |
| GACCGGTC | -0.126 |
| GTATGTAA | 0.132 |
| CCGTGAGG | 0.00323 |
| CGATACTC | 0.0987 |
| AACGGCCG | -0.0756 |
| AGACGTAC | 0.244 |
| AACCTCTC | -0.269 |
| CCCAGGCA | -0.125 |
| GGCTGGGA | 0.00161 |
| CATCCCGA | 0.024 |
| GCCTCTCA | -0.179 |
| GTATAAAA | 0.356 |
| GTAACTTA | 0.0598 |
| GGTTTCAC | -0.0429 |

| Sequence | PBM E-score |
| --- | --- |
| TGTTAGAA | -0.052 |
| ACACCTAT | -0.0633 |
| AGTTCTAT | -0.0806 |
| ATGCGGAG | -0.0481 |
| ACAACATG | 0.0833 |
| ACGAGTGA | 0.217 |
| CTGTTGGC | -0.262 |
| TCGTTAGA | 0.244 |
| TCTTAGCA | -0.236 |
| AGTAAGTG | -0.126 |
| GGCGCGAA | -0.0951 |
| GTGAACAC | -0.00022 |
| ATATATTA | 0.219 |
| AGTGACCA | 0.308 |
| AAAGGGGA | -0.00295 |
| TCCGAACA | -0.148 |
| ACACTGTG | -0.164 |
| ACACGCAC | -0.0255 |
| CGCGCGAC | 0.259 |
| ATCCGCCC | -0.191 |
| GACACACA | -0.0457 |
| ACGCCACG | 0.106 |
| CCGCCAGA | -0.00462 |
| CAGAAGGG | -0.136 |
| GCTACCCC | -0.165 |

Some of the entries above in another layout:
Sequence | PBM E-score
TGTTAGAA | -0.052
ATGCGGAG | -0.0481
ACGAGTGA | 0.217
TCTTAGCA | -0.236
GACACACA | -0.0457
ACGCCACG | 0.106

Reprinted from the entries so far for reference:

| Sequence | PBM E-score |
| --- | --- |
| CCATCGCC | -0.204 |
| ACGGGGGA | 0.0699 |
| ACGACCCG | 0.166 |
| ATAAAAAG | 0.18 |
| GGGAATAA | 0.086 |
| AAAGCGAC | 0.242 |
| CCGCTATC | -0.0439 |

(listing goes on)

| Sequence | PBM E-score |
| --- | --- |
| CGTACCAC | 0.239 |
| CAGCAGCC | -0.098 |
| ACGGTCAC | 0.0626 |
| AACACCTA | 0.0589 |
| CACGCAAC | 0.2 |
| CCCATGCC | -0.108 |
| CTTAGGAC | 0.115 |
| CCCACGAA | 0.316 |
| TCCAGTAA | -0.184 |
| AGTGTTTG | -0.0678 |
| TACTAGCA | 0.083 |
| CGGCTGAC | -0.0184 |
| CTTCTCGC | 0.0168 |
| AGCTACAC | -0.0645 |
| ATCATGAG | 0.238 |
| GATACCTA | 0.179 |
| ATTTCGCC | 0.0643 |
| CGTTTCTA | 0.00971 |
| AGCGAACG | -0.108 |
| CGGAGCCG | -0.0539 |
| CGGTTGCA | -0.127 |
| ACGAATCG | 0.189 |
